In the supplement of paper PMC12823440, “Inhibitors supercharge kinase turnover through native proteolytic circuits” (Nature, 2025):
Where a name gives a salt, the structure may show the parent alone. This is one part of the list. Hit calls seldom repeat between salt and free forms of one compound.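 Kinases were expressed as nanoluciferase fusions in K562 cells and luminescence was read every 4 h between 2 and 18 h as percent of control, DMSO set to 100% and a positive control to 0%. A time point counts as decreased when the signal drops significantly (2 sigma). The hit call is the authors' own, does not follow from the count of time points alone, and its rule is not shown.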

By UniProt entry, the sequences of proteins in these tests, tags left out. Where a name states a change or a piece, a line headed by the entry shows the natural chain unless it says otherwise.
UniProt Q15208: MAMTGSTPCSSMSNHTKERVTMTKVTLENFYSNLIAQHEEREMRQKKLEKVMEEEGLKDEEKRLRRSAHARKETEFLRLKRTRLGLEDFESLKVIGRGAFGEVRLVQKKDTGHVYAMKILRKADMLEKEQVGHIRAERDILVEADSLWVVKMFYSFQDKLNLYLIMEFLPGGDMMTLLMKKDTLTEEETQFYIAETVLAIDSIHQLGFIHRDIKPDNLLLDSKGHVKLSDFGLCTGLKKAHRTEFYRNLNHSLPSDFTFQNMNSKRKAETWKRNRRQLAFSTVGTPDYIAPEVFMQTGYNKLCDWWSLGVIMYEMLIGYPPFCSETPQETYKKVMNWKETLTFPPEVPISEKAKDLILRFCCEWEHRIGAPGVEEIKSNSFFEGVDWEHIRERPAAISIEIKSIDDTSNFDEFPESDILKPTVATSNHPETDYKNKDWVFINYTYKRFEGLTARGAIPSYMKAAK
UniProt P42680: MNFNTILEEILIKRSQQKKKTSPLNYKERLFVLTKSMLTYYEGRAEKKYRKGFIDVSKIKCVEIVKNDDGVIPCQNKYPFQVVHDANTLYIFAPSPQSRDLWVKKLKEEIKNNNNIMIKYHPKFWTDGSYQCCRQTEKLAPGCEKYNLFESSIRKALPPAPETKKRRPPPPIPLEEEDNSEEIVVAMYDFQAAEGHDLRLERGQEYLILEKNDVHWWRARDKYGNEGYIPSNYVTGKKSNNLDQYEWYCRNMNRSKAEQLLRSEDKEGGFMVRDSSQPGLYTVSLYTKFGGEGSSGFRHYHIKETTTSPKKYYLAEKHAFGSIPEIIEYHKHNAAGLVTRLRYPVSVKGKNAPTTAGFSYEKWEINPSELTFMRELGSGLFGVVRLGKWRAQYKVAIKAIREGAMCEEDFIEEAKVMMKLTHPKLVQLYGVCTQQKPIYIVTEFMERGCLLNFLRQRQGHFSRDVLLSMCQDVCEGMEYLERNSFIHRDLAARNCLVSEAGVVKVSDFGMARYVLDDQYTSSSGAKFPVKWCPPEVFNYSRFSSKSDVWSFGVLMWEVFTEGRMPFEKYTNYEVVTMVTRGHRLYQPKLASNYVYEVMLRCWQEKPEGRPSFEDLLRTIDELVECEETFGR
UniProt P29597: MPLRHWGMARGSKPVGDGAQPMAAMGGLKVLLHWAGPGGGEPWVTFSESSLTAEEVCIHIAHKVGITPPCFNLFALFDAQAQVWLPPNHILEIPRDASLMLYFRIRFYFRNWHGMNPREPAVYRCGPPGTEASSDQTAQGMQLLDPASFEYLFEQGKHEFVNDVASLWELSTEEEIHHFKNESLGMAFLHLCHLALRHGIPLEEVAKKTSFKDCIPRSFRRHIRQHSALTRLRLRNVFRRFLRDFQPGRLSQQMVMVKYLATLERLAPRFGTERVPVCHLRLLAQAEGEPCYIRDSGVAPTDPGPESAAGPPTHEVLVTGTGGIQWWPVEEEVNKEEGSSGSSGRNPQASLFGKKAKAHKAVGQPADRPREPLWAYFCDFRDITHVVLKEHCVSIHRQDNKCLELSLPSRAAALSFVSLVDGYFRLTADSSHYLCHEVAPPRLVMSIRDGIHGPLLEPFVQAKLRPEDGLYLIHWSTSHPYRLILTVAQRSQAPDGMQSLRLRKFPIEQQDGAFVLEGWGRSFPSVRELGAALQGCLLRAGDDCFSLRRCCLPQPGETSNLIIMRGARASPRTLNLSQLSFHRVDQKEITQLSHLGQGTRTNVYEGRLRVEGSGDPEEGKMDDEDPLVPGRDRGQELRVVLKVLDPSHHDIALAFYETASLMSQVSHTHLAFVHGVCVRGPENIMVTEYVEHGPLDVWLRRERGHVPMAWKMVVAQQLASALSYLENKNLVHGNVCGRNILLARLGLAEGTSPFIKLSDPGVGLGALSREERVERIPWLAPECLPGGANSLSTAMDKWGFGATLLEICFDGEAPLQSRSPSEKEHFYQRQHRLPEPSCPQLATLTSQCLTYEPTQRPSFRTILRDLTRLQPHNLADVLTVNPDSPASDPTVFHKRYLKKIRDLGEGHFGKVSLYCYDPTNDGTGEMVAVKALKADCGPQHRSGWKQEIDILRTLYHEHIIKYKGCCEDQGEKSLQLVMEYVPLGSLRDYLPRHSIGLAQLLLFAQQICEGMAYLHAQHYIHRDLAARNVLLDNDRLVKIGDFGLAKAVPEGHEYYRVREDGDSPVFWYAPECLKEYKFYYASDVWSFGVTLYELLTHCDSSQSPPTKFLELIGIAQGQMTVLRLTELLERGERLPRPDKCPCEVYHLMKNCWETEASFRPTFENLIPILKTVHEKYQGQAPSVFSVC
UniProt Q6PHR2: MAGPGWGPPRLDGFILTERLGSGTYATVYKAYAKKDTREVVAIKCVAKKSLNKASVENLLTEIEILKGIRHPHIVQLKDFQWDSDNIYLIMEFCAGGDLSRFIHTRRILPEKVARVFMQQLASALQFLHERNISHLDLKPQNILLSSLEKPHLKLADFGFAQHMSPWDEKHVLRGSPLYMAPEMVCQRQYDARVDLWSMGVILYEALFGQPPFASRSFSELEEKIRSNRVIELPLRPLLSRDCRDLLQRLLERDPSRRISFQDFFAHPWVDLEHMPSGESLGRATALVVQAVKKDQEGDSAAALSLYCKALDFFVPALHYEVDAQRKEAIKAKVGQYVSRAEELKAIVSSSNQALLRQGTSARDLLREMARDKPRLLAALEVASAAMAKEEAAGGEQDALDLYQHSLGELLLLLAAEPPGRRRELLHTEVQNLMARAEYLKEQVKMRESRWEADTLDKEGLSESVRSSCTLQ
UniProt P07947, whole entry, looked up: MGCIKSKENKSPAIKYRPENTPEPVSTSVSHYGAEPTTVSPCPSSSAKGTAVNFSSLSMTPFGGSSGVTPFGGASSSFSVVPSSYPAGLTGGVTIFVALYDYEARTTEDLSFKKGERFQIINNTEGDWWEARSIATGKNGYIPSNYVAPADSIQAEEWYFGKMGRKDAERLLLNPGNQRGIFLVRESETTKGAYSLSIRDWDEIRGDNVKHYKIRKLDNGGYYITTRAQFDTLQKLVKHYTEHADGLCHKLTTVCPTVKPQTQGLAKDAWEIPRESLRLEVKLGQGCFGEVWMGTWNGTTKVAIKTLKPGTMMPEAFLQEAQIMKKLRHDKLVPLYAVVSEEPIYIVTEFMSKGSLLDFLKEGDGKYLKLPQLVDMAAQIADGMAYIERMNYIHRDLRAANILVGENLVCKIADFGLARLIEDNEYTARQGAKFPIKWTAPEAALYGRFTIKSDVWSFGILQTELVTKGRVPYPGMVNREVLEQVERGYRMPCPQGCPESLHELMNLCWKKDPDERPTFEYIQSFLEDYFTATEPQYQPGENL
UniProt P43403: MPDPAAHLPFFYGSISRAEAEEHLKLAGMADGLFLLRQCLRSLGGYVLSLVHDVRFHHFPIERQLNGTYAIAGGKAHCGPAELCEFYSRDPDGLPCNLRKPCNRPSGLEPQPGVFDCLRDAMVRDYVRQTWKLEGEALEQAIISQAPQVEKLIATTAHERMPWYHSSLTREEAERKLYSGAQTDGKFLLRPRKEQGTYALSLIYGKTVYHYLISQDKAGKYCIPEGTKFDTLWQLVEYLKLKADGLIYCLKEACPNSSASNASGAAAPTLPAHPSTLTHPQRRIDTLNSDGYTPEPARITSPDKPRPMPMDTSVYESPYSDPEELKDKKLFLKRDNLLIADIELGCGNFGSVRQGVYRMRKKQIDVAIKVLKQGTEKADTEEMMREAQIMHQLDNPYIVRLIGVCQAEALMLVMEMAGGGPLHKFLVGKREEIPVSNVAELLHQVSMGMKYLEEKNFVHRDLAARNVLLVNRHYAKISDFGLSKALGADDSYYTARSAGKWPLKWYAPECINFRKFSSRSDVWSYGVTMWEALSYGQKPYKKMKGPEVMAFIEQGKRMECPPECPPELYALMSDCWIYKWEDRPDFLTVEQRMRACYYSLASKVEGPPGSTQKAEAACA
UniProt P11802: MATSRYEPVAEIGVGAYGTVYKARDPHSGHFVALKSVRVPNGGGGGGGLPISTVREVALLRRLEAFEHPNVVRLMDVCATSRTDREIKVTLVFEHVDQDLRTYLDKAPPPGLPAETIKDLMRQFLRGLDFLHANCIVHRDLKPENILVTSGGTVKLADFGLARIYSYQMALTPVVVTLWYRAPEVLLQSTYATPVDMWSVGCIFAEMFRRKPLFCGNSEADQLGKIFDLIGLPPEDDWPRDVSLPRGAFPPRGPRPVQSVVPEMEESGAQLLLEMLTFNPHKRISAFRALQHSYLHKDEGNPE
UniProt P50613: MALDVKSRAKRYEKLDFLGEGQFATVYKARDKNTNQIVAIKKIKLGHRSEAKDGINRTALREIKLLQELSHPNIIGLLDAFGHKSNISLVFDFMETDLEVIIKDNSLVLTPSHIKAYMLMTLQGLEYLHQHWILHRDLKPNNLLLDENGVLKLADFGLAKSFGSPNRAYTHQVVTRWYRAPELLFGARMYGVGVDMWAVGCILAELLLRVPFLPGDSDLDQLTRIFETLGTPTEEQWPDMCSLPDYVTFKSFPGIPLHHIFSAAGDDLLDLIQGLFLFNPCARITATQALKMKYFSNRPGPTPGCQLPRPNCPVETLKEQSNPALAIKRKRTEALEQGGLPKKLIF

Legend:
Conditions in all cases: K562, 2-18 h
[1] = biological target: STK38 (UniProt Q15208); test: kinase-Nluc reporter destabilization hit call (1 = scored as downregulated) (binary); higher = compound decreases kinase abundance
[2] = biological target: SYK (UniProt P43405); test: as above
[3] = biological target: TEC (UniProt P42680); test: as above
[4] = biological target: TYK2 (UniProt P29597); test: as above
[5] = biological target: ULK3 (UniProt Q6PHR2); test: as above
[6] = biological target: YES1 (UniProt P07947); test: as above
[7] = biological target: ZAK (UniProt Q9NYL2); test: as above
[8] = biological target: ZAP70 (UniProt P43403); test: as above
[9] = biological target: CDK4 (UniProt P11802); test: number of time points (of 4; 2 h point missing) at which kinase-Nluc abundance scored as decreased, DMSO-normalised (count); higher = more persistent destabilization
[10] = biological target: CDK7 (UniProt P50613); test: as above

Structure (SMILES): Cc1ccc(Nc2nccc(N(C)c3ccc4c(C)n(C)nc4c3)n2)cc1S(N)(=O)=O [Pazopanib]
- kinase-Nluc reporter destabilization hit call ([1]; 10 µM): inactive: 0
- kinase-Nluc reporter destabilization hit call ([2]; 10 µM): inactive: 0
- kinase-Nluc reporter destabilization hit call ([3]; 10 µM): inactive: 0
- kinase-Nluc reporter destabilization hit call ([4]; 10 µM): inactive: 0
- kinase-Nluc reporter destabilization hit call ([5]; 10 µM): inactive: 0
- kinase-Nluc reporter destabilization hit call ([6]; 10 µM): inactive: 0
- kinase-Nluc reporter destabilization hit call ([7]; 10 µM): inactive: 0
- kinase-Nluc reporter destabilization hit call ([8]; 10 µM): inactive: 0
- number of time points ([9]; 10 µM): 0
- number of time points ([10]; 10 µM): 0

Structure (SMILES): CC(C)[C@@](C)(O)[C@@H]1CN(c2nc(-c3[nH]nc4ncccc34)c(F)cc2Cl)CCN1
- kinase-Nluc reporter destabilization hit call ([1]; 10 µM): inactive: 0
- kinase-Nluc reporter destabilization hit call ([2]; 10 µM): inactive: 0
- kinase-Nluc reporter destabilization hit call ([3]; 10 µM): inactive: 0
- kinase-Nluc reporter destabilization hit call ([4]; 10 µM): inactive: 0
- kinase-Nluc reporter destabilization hit call ([5]; 10 µM): inactive: 0
- kinase-Nluc reporter destabilization hit call ([6]; 10 µM): inactive: 0
- kinase-Nluc reporter destabilization hit call ([7]; 10 µM): inactive: 0
- kinase-Nluc reporter destabilization hit call ([8]; 10 µM): inactive: 0
- number of time points ([9]; 10 µM): 0
- number of time points ([10]; 10 µM): 3

Structure (SMILES): COc1ccc(CNC(=O)Nc2ncc([N+](=O)[O-])s2)cc1
- kinase-Nluc reporter destabilization hit call ([1]; 2.5 µM): inactive: 0
- kinase-Nluc reporter destabilization hit call ([2]; 2.5 µM): inactive: 0
- kinase-Nluc reporter destabilization hit call ([3]; 2.5 µM): inactive: 0
- kinase-Nluc reporter destabilization hit call ([4]; 2.5 µM): inactive: 0
- kinase-Nluc reporter destabilization hit call ([5]; 2.5 µM): inactive: 0
- kinase-Nluc reporter destabilization hit call ([6]; 2.5 µM): inactive: 0
- kinase-Nluc reporter destabilization hit call ([7]; 2.5 µM): inactive: 0
- kinase-Nluc reporter destabilization hit call ([8]; 2.5 µM): inactive: 0
- number of time points ([9]; 2.5 µM): 0
- number of time points ([10]; 2.5 µM): 0

Structure (SMILES): CCOc1cc2ncc(C#N)c(Nc3ccc(F)c(Cl)c3)c2cc1NC(=O)/C=C/CN(C)C [Pelitinib]
- kinase-Nluc reporter destabilization hit call ([1]; 2.5 µM): inactive: 0
- kinase-Nluc reporter destabilization hit call ([2]; 2.5 µM): inactive: 0
- kinase-Nluc reporter destabilization hit call ([3]; 2.5 µM): inactive: 0
- kinase-Nluc reporter destabilization hit call ([4]; 2.5 µM): active: 1
- kinase-Nluc reporter destabilization hit call ([5]; 2.5 µM): inactive: 0
- kinase-Nluc reporter destabilization hit call ([6]; 2.5 µM): inactive: 0
- kinase-Nluc reporter destabilization hit call ([7]; 2.5 µM): inactive: 0
- kinase-Nluc reporter destabilization hit call ([8]; 2.5 µM): inactive: 0
- number of time points ([9]; 2.5 µM): 0
- number of time points ([10]; 2.5 µM): 0

Structure (SMILES): NC1(C(=O)N[C@@H](CCO)c2ccc(Cl)cc2)CCN(c2nc[nH]c3nccc2-3)CC1 [Capivasertib]
- kinase-Nluc reporter destabilization hit call ([1]; 10 µM): inactive: 0
- kinase-Nluc reporter destabilization hit call ([2]; 10 µM): inactive: 0
- kinase-Nluc reporter destabilization hit call ([3]; 10 µM): inactive: 0
- kinase-Nluc reporter destabilization hit call ([4]; 10 µM): inactive: 0
- kinase-Nluc reporter destabilization hit call ([5]; 10 µM): inactive: 0
- kinase-Nluc reporter destabilization hit call ([6]; 10 µM): inactive: 0
- kinase-Nluc reporter destabilization hit call ([7]; 10 µM): inactive: 0
- kinase-Nluc reporter destabilization hit call ([8]; 10 µM): inactive: 0
- number of time points ([9]; 10 µM): 0
- number of time points ([10]; 10 µM): 0

Structure (SMILES): Cc1ccc(-n2nc(C(C)(C)C)cc2NC(=O)Nc2ccc(OCCN3CCOCC3)c3ccccc23)cc1 [Doramapimod]
- kinase-Nluc reporter destabilization hit call ([1]; 10 µM): inactive: 0
- kinase-Nluc reporter destabilization hit call ([2]; 10 µM): inactive: 0
- kinase-Nluc reporter destabilization hit call ([3]; 10 µM): inactive: 0
- kinase-Nluc reporter destabilization hit call ([4]; 10 µM): inactive: 0
- kinase-Nluc reporter destabilization hit call ([5]; 10 µM): inactive: 0
- kinase-Nluc reporter destabilization hit call ([6]; 10 µM): inactive: 0
- kinase-Nluc reporter destabilization hit call ([7]; 10 µM): inactive: 0
- kinase-Nluc reporter destabilization hit call ([8]; 10 µM): inactive: 0
- number of time points ([9]; 10 µM): 0
- number of time points ([10]; 10 µM): 0

Structure (SMILES): Cc1cc2c(F)c(Oc3ncnn4cc(OC[C@@H](C)O)c(C)c34)ccc2[nH]1 [Brivanib]
- kinase-Nluc reporter destabilization hit call ([1]; 10 µM): inactive: 0
- kinase-Nluc reporter destabilization hit call ([2]; 10 µM): inactive: 0
- kinase-Nluc reporter destabilization hit call ([3]; 10 µM): inactive: 0
- kinase-Nluc reporter destabilization hit call ([4]; 10 µM): inactive: 0
- kinase-Nluc reporter destabilization hit call ([5]; 10 µM): inactive: 0
- kinase-Nluc reporter destabilization hit call ([6]; 10 µM): inactive: 0
- kinase-Nluc reporter destabilization hit call ([7]; 10 µM): inactive: 0
- kinase-Nluc reporter destabilization hit call ([8]; 10 µM): inactive: 0
- number of time points ([9]; 10 µM): 0
- number of time points ([10]; 10 µM): 0

Structure (SMILES): Nc1ncnc2n[nH]c(-c3ccc(Oc4ccccc4)cc3)c12 [Ibrutinib deacryloylpiperidine]
- kinase-Nluc reporter destabilization hit call ([1]; 10 µM): inactive: 0
- kinase-Nluc reporter destabilization hit call ([2]; 10 µM): inactive: 0
- kinase-Nluc reporter destabilization hit call ([3]; 10 µM): inactive: 0
- kinase-Nluc reporter destabilization hit call ([4]; 10 µM): inactive: 0
- kinase-Nluc reporter destabilization hit call ([5]; 10 µM): inactive: 0
- kinase-Nluc reporter destabilization hit call ([6]; 10 µM): inactive: 0
- kinase-Nluc reporter destabilization hit call ([7]; 10 µM): inactive: 0
- kinase-Nluc reporter destabilization hit call ([8]; 10 µM): inactive: 0
- number of time points ([9]; 10 µM): 0
- number of time points ([10]; 10 µM): 0

Structure (SMILES): COc1nccc(-c2c(-c3ccc(F)cc3)ncn2C2CCNCC2)n1
- kinase-Nluc reporter destabilization hit call ([1]; 10 µM): inactive: 0
- kinase-Nluc reporter destabilization hit call ([2]; 10 µM): inactive: 0
- kinase-Nluc reporter destabilization hit call ([3]; 10 µM): inactive: 0
- kinase-Nluc reporter destabilization hit call ([4]; 10 µM): inactive: 0
- kinase-Nluc reporter destabilization hit call ([5]; 10 µM): inactive: 0
- kinase-Nluc reporter destabilization hit call ([6]; 10 µM): inactive: 0
- kinase-Nluc reporter destabilization hit call ([8]; 10 µM): inactive: 0
- number of time points ([9]; 10 µM): 0
- number of time points ([10]; 10 µM): 0

Structure (SMILES): Cc1cc(Nc2cc(N3CCN(C)CC3)nc(/C=C/c3ccccc3)n2)n[nH]1 [ENMD-2076 (Tartrate)]
- kinase-Nluc reporter destabilization hit call ([1]; 2.5 µM): inactive: 0
- kinase-Nluc reporter destabilization hit call ([3]; 2.5 µM): inactive: 0
- kinase-Nluc reporter destabilization hit call ([4]; 2.5 µM): inactive: 0
- kinase-Nluc reporter destabilization hit call ([5]; 2.5 µM): inactive: 0
- kinase-Nluc reporter destabilization hit call ([6]; 2.5 µM): inactive: 0
- kinase-Nluc reporter destabilization hit call ([7]; 2.5 µM): inactive: 0
- kinase-Nluc reporter destabilization hit call ([8]; 2.5 µM): inactive: 0
- number of time points ([9]; 2.5 µM): 0
- number of time points ([10]; 2.5 µM): 0

Structure (SMILES): O=C(NCCCNc1nc(Nc2cccc(CN3CCOCC3)c2)ncc1C1CC1)C1CCC1
- kinase-Nluc reporter destabilization hit call ([1]; 10 µM): inactive: 0
- kinase-Nluc reporter destabilization hit call ([2]; 10 µM): inactive: 0
- kinase-Nluc reporter destabilization hit call ([3]; 10 µM): inactive: 0
- kinase-Nluc reporter destabilization hit call ([4]; 10 µM): inactive: 0
- kinase-Nluc reporter destabilization hit call ([5]; 10 µM): inactive: 0
- kinase-Nluc reporter destabilization hit call ([6]; 10 µM): inactive: 0
- kinase-Nluc reporter destabilization hit call ([7]; 10 µM): inactive: 0
- kinase-Nluc reporter destabilization hit call ([8]; 10 µM): inactive: 0
- number of time points ([9]; 10 µM): 0
- number of time points ([10]; 10 µM): 0

Structure (SMILES): Cc1cnc(Nc2ccc(OCCN3CCCC3)cc2)nc1Nc1cccc(S(=O)(=O)NC(C)(C)C)c1 [Fedratinib (hydrochloride hydrate)]
- kinase-Nluc reporter destabilization hit call ([1]; 2.5 µM): inactive: 0
- kinase-Nluc reporter destabilization hit call ([2]; 2.5 µM): inactive: 0
- kinase-Nluc reporter destabilization hit call ([3]; 2.5 µM): inactive: 0
- kinase-Nluc reporter destabilization hit call ([4]; 2.5 µM): inactive: 0
- kinase-Nluc reporter destabilization hit call ([5]; 2.5 µM): inactive: 0
- kinase-Nluc reporter destabilization hit call ([6]; 2.5 µM): inactive: 0
- kinase-Nluc reporter destabilization hit call ([7]; 2.5 µM): inactive: 0
- kinase-Nluc reporter destabilization hit call ([8]; 2.5 µM): inactive: 0
- number of time points ([9]; 2.5 µM): 0
- number of time points ([10]; 2.5 µM): 0

Structure (SMILES): CC[C@@H]1C(=O)N(C)c2cnc(Nc3ccc(C(=O)NC4CCN(C)CC4)cc3OC)nc2N1C1CCCC1
- kinase-Nluc reporter destabilization hit call ([1]; 10 µM): inactive: 0
- kinase-Nluc reporter destabilization hit call ([3]; 10 µM): inactive: 0
- kinase-Nluc reporter destabilization hit call ([4]; 10 µM): inactive: 0
- kinase-Nluc reporter destabilization hit call ([5]; 10 µM): inactive: 0
- kinase-Nluc reporter destabilization hit call ([6]; 10 µM): inactive: 0
- kinase-Nluc reporter destabilization hit call ([7]; 10 µM): inactive: 0
- kinase-Nluc reporter destabilization hit call ([8]; 10 µM): inactive: 0
- number of time points ([9]; 10 µM): 0
- number of time points ([10]; 10 µM): 0

Structure (SMILES): CCc1cc2c(cc1-c1cnn(CC(=O)N(C)C)c1)C(C)(C)c1[nH]c3cc(C#N)ccc3c1C2=O
- kinase-Nluc reporter destabilization hit call ([1]; 2.5 µM): inactive: 0
- kinase-Nluc reporter destabilization hit call ([2]; 2.5 µM): inactive: 0
- kinase-Nluc reporter destabilization hit call ([3]; 2.5 µM): inactive: 0
- kinase-Nluc reporter destabilization hit call ([4]; 2.5 µM): inactive: 0
- kinase-Nluc reporter destabilization hit call ([5]; 2.5 µM): inactive: 0
- kinase-Nluc reporter destabilization hit call ([6]; 2.5 µM): inactive: 0
- kinase-Nluc reporter destabilization hit call ([7]; 2.5 µM): inactive: 0
- kinase-Nluc reporter destabilization hit call ([8]; 2.5 µM): inactive: 0
- number of time points ([9]; 2.5 µM): 0
- number of time points ([10]; 2.5 µM): 0

Structure (SMILES): C[C@@]1(C(=O)Nc2ccc(F)nc2)CCCN1c1nc(Nc2cc(C3CC3)n[nH]2)c2cccn2n1
- kinase-Nluc reporter destabilization hit call ([1]; 10 µM): inactive: 0
- kinase-Nluc reporter destabilization hit call ([2]; 10 µM): inactive: 0
- kinase-Nluc reporter destabilization hit call ([3]; 10 µM): inactive: 0
- kinase-Nluc reporter destabilization hit call ([4]; 10 µM): inactive: 0
- kinase-Nluc reporter destabilization hit call ([5]; 10 µM): inactive: 0
- kinase-Nluc reporter destabilization hit call ([6]; 10 µM): inactive: 0
- kinase-Nluc reporter destabilization hit call ([7]; 10 µM): inactive: 0
- kinase-Nluc reporter destabilization hit call ([8]; 10 µM): inactive: 0
- number of time points ([9]; 10 µM): 0
- number of time points ([10]; 10 µM): 0

Structure (SMILES): COc1cc2ncnc(Nc3cccc(Br)c3)c2cc1OC
- kinase-Nluc reporter destabilization hit call ([1]; 10 µM): inactive: 0
- kinase-Nluc reporter destabilization hit call ([2]; 10 µM): inactive: 0
- kinase-Nluc reporter destabilization hit call ([3]; 10 µM): inactive: 0
- kinase-Nluc reporter destabilization hit call ([4]; 10 µM): inactive: 0
- kinase-Nluc reporter destabilization hit call ([5]; 10 µM): inactive: 0
- kinase-Nluc reporter destabilization hit call ([6]; 10 µM): inactive: 0
- kinase-Nluc reporter destabilization hit call ([7]; 10 µM): inactive: 0
- kinase-Nluc reporter destabilization hit call ([8]; 10 µM): inactive: 0
- number of time points ([9]; 10 µM): 0
- number of time points ([10]; 10 µM): 0
